Test results: PubChem BioAssay AID1347075 (National Center for Advancing Translational Sciences (NCATS), 2019)
In all, about 400,000 compounds went through this assay and about 5,500 (1.4%) were called active. Inconclusive results, whose numbers are uncertain, are shown with a selection of clear calls. Calls come from the whole dose curve; as a rule, active = well fitted cell-killing curve with a large enough effect; inconclusive = small, poorly fitted or top-dose-only effect, or effect the other way; inactive = flat fitted curve, though single readings scatter. A potency beside an inconclusive call is a rough fit, not a confirmed value.

Experiment: qHTS assay for MDR1-selective chemotherapeutics: Primary screen using the parental adenocarcinoma cell KB-3-1; note: nearly all actives have a fitted effect of over 60% in size
Settings: KB-3-1 viability, CellTiter-Glo ATP luminescence, 72 h; activity change, negative = cytotoxic: at 46.1 µM (top of the series)
Method in brief: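 Screening of KB-3-1 cells (DMEM, 10% FBS, phenol-red free) ran from lowest to highest compound concentration; after 72 h at 37 °C viability was read luminescently and curves fitted.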
% is set by controls: 0 for no effect and ±100 for the full control effect; potency is the fitted concentration of half-maximal effect.

SMILES | activity change, negative = cytotoxic | Potency
CC(C)N(C(=S)Nc1cccc(C(F)(F)F)c1)C(C)c1ccccn1 (stereo not given) | inactive: -21.3% | 
COc1ccc(-c2cc3nc(C)c(CCC(=O)N4CCN(c5ccccn5)CC4)c(C)n3n2)c(OC)c1 |  | inconclusive: 32.6 µM [cytotoxic, single point]
COc1ccc(/C=C/C(=O)Nc2ccc(-c3nnc4n3CCCCC4)cc2)c(OC)c1 | inactive: -19.3% | 
Cc1ccc(NC(=O)Cn2c(=O)c3cccn3c3ccccc32)c(Cl)c1 |  | inconclusive: 2.06 µM [cytotoxic, partial curve, poor fit]
Fc1ccc(-c2nc(-c3c[nH]c4ccccc34)cs2)cc1 |  | inconclusive: 18.4 µM [rising, single point]
S=c1[nH]nc(COc2ccccc2)n1Cc1ccccc1 | inactive: -14.8% | 
Cc1cc(NC(=O)CSc2nc3c([nH]c4ccccc43)c(=O)n2-c2cccc(C(F)(F)F)c2)no1 | inconclusive: -45.7% [cytotoxic] | 
CC(=O)Nc1ccc2c(c1)CCCN2C(=O)c1ccccc1 | inactive: 0.074% | 
Cc1ccc([C@H]2C[C@H](O)[C@@H](n3cc(COC(=O)c4ccccc4)nn3)CN2CC2CCCCC2)cc1 |  | inconclusive: 29.1 µM [cytotoxic, single point]
O=C(CCn1c(=O)oc2ccccc21)Nc1cccc(Br)c1 | inactive: 31.1% | 
Cc1occc1-c1nnc(SCC(=O)NCCc2ccccc2)n1C(C)c1ccccc1 (stereo not given) |  | inconclusive: 29.1 µM [cytotoxic, single point]
COc1ccc(OC(C)C(=O)NCc2nc(-c3cccc(C)c3)no2)cc1 (stereo not given) | inactive: 0% | 
CCCOC(=O)CSc1nnc(-c2cc(OC)c(OC)c(OC)c2)o1 |  | inconclusive: 9.2 µM [cytotoxic, partial curve, poor fit]
O=C(Cn1nnc(-c2cc(C(F)(F)F)cc(C(F)(F)F)c2)n1)NNC(=S)Nc1ccc(Cl)cc1 | inactive: 0.519% | 
COc1ccc(-c2ccc3ncnc(NCc4ccc(C)o4)c3c2)cc1OC | inactive: -5.3% | 
COc1ccc(/C=C/C(=O)c2cc3c(cc2N)OCO3)cc1 | inactive: -5.69% | 
CC1Sc2ccc(C(=O)Nc3cc(S(C)(=O)=O)ccc3Cl)cc2NC1=O (stereo not given) |  | inconclusive: 29.1 µM [rising, single point]
COc1ccc(-c2cc(C(=O)Nc3c(C)nn(Cc4ccccc4Cl)c3C)no2)cc1OC |  | inconclusive: 29.1 µM [cytotoxic, single point]
Oc1cc(-c2cccnc2)cc2cccnc12 |  | inconclusive: 23.1 µM [cytotoxic, single point]
CN(C)C(CNC(=O)CNC(=O)c1ccc(Br)cc1)c1ccccc1 (stereo not given) | inactive: -2.89% | 
Cc1ccccc1-c1noc(-c2ccc(N3CCN(C)CC3)c([N+](=O)[O-])c2)n1 | inactive: 3.25% | 
COc1ccc(S(=O)(=O)Nc2ccc(O)c3ccccc23)cc1 |  | inconclusive: 29.1 µM [cytotoxic, single point]
COc1ccccc1CNc1nc2cc(-c3ccc(OC)c(OC)c3)sc2c(=O)n1C |  | inconclusive: 29.1 µM [cytotoxic, single point]

8 of the compounds above, as tab-separated lines.
SMILES	activity change, negative = cytotoxic	Potency
CC(C)N(C(=S)Nc1cccc(C(F)(F)F)c1)C(C)c1ccccn1 (stereo not given)	inactive: -21.3%	
COc1ccc(-c2cc3nc(C)c(CCC(=O)N4CCN(c5ccccn5)CC4)c(C)n3n2)c(OC)c1		inconclusive: 32.6 µM [cytotoxic, single point]
COc1ccc(/C=C/C(=O)Nc2ccc(-c3nnc4n3CCCCC4)cc2)c(OC)c1	inactive: -19.3%	
Cc1ccc(NC(=O)Cn2c(=O)c3cccn3c3ccccc32)c(Cl)c1		inconclusive: 2.06 µM [cytotoxic, partial curve, poor fit]
Fc1ccc(-c2nc(-c3c[nH]c4ccccc34)cs2)cc1		inconclusive: 18.4 µM [rising, single point]
S=c1[nH]nc(COc2ccccc2)n1Cc1ccccc1	inactive: -14.8%	
Cc1cc(NC(=O)CSc2nc3c([nH]c4ccccc43)c(=O)n2-c2cccc(C(F)(F)F)c2)no1	inconclusive: -45.7% [cytotoxic]	
CC(=O)Nc1ccc2c(c1)CCCN2C(=O)c1ccccc1	inactive: 0.074%	

Remaining list, next part:

SMILES | activity change, negative = cytotoxic | Potency
O=C(Nc1ccc2nc3n(c(=O)c2c1)CCCCC3)c1c(F)ccc([N+](=O)[O-])c1F |  | active: 2.31 µM
NC(Cc1ccccc1)c1csc(Nc2ccc(C(=O)c3ccccc3)cc2)n1 (stereo not given) |  | inconclusive: 29.1 µM [cytotoxic, single point]
Cc1cc(C)c2c(c1)cc(C)c1nnc(SCC(=O)Nc3cc(C)on3)n12 |  | inconclusive: 23.1 µM [cytotoxic, single point]
Cc1oc(-c2ccc(C(=O)NCc3ccccc3Cl)cc2)nc1CN1CCc2ccccc21 |  | active: 5.8 µM
Oc1ccc(Br)cc1-c1nc2cnccn2c1NC1CCCC1 |  | inconclusive: 20.6 µM [cytotoxic, single point]
COc1ccc(C)cc1NC(=O)c1cc(S(=O)(=O)N2CCc3ccccc3C2)ccc1F |  | inconclusive: 29.1 µM [cytotoxic, single point]
COc1cc(/C=C2\SC(N3CCc4ccccc4C3)=NC2=O)cc(OC)c1OC |  | inconclusive: 16.4 µM [rising, partial curve, poor fit]
COc1cc(CCC(=O)NCc2ccc3c(c2)OCO3)cc(OC)c1OC | inactive: 20.5% | 
CCc1nc2ccc(C(=O)N(C)CC(=O)Nc3ccc(F)c(F)c3F)cc2nc1CC | inactive: -1.39% | 
Cc1ccc(C)c(OCCn2cc(/C=C(\C#N)C(=O)NCC3CCCO3)c3ccccc32)c1 (stereo not given) |  | inconclusive: 16.4 µM [cytotoxic, single point]
CCn1c(C)[n+](Cc2ccccc2)c2ccc(Cl)cc21 |  | inconclusive: 23.1 µM [cytotoxic, single point]
Cc1ccc(CCNC(=O)c2c[nH]c3ccc(S(=O)(=O)Nc4cccc(C(F)(F)F)c4)cc3c2=O)cc1 |  | active: 13 µM
CCC1=C(c2ccc(C)cc2)S(=O)(=O)N=C1N1CCC(C(=O)NCCc2ccc(Cl)cc2)CC1 |  | active: 14.6 µM
CCOc1ccc(CCNC(=O)Cn2cccc2C(=O)c2ccccc2C)cc1OCC | inactive: -0.801% | 
COCC(=O)N1CCC(Oc2ccc(C(=O)NC(C)c3csc(C)n3)cc2)CC1 (stereo not given) | inactive: 3.02% | 
CC(C)C[C@H]1CN([C@@H](Cc2ccc(O)cc2)CN2CCC[C@H]2CN2C(=O)C(=O)NC[C@@H]2Cc2ccccc2)C(=O)C(=O)N1CC1CCCCC1 |  | inconclusive: 29.1 µM [cytotoxic, single point]
COc1ccc2[nH]c3nc(SCc4nnc(-c5ccc(C)cc5)o4)nnc3c2c1 |  | inconclusive: 13 µM [cytotoxic, single point]
O=C(COC(=O)CCC(=O)c1cccs1)NCCc1ccccc1 | inactive: 0.969% | 
CCOC(=O)c1[nH]c(C)c(C(=O)c2cc(F)ccc2F)c1C |  | active: 0.92 µM
O=C(Cn1c(=O)nc(-c2ccccc2)c2cc(Cl)ccc21)NCc1ccc(Cl)cc1 |  | inconclusive: 23.1 µM [cytotoxic, single point]
C[C@H](CO)N1C[C@H](C)[C@H](CN(C)S(=O)(=O)c2cn(C)cn2)Oc2ccc(NC(=O)Nc3ccc(C(F)(F)F)cc3)cc2CC1=O |  | active: 4.11 µM
CC(NS(=O)(=O)c1ccccc1)C(c1cccs1)N1CCN(c2ccccc2)CC1 (stereo not given) |  | inconclusive: 29.1 µM [cytotoxic, single point]
